This is an account of results in article PMC3283702.

The chains behind the UniProt entries cited, without tags or fusion partners.
UniProt P53396: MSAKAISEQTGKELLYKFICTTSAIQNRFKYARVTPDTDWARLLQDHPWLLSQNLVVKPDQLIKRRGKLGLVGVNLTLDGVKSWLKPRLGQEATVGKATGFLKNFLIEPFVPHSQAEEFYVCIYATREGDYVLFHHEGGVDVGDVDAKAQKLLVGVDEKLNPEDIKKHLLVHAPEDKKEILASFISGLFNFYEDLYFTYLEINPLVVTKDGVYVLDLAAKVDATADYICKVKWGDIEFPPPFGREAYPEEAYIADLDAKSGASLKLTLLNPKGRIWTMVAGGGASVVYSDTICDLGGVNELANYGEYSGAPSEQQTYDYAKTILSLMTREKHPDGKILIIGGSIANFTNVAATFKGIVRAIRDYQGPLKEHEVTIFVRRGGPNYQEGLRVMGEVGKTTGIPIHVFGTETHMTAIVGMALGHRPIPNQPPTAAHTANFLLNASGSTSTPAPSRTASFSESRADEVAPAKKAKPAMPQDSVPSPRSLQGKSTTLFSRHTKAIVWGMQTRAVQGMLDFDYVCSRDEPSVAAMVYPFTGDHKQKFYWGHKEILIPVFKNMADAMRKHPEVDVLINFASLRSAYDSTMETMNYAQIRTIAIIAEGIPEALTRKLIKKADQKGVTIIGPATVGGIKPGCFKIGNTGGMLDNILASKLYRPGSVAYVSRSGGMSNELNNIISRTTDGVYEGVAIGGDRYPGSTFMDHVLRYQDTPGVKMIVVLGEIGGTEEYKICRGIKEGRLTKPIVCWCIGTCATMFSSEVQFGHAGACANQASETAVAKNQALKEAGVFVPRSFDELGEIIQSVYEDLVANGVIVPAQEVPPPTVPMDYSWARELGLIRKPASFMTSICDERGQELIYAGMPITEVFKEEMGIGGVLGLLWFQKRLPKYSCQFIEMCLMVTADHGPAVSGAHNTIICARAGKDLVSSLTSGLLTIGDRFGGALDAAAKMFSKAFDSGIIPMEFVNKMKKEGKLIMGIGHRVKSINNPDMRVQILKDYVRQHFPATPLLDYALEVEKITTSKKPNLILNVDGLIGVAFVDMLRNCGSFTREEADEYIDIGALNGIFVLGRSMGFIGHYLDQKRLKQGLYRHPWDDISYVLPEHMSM
UniProt P78527: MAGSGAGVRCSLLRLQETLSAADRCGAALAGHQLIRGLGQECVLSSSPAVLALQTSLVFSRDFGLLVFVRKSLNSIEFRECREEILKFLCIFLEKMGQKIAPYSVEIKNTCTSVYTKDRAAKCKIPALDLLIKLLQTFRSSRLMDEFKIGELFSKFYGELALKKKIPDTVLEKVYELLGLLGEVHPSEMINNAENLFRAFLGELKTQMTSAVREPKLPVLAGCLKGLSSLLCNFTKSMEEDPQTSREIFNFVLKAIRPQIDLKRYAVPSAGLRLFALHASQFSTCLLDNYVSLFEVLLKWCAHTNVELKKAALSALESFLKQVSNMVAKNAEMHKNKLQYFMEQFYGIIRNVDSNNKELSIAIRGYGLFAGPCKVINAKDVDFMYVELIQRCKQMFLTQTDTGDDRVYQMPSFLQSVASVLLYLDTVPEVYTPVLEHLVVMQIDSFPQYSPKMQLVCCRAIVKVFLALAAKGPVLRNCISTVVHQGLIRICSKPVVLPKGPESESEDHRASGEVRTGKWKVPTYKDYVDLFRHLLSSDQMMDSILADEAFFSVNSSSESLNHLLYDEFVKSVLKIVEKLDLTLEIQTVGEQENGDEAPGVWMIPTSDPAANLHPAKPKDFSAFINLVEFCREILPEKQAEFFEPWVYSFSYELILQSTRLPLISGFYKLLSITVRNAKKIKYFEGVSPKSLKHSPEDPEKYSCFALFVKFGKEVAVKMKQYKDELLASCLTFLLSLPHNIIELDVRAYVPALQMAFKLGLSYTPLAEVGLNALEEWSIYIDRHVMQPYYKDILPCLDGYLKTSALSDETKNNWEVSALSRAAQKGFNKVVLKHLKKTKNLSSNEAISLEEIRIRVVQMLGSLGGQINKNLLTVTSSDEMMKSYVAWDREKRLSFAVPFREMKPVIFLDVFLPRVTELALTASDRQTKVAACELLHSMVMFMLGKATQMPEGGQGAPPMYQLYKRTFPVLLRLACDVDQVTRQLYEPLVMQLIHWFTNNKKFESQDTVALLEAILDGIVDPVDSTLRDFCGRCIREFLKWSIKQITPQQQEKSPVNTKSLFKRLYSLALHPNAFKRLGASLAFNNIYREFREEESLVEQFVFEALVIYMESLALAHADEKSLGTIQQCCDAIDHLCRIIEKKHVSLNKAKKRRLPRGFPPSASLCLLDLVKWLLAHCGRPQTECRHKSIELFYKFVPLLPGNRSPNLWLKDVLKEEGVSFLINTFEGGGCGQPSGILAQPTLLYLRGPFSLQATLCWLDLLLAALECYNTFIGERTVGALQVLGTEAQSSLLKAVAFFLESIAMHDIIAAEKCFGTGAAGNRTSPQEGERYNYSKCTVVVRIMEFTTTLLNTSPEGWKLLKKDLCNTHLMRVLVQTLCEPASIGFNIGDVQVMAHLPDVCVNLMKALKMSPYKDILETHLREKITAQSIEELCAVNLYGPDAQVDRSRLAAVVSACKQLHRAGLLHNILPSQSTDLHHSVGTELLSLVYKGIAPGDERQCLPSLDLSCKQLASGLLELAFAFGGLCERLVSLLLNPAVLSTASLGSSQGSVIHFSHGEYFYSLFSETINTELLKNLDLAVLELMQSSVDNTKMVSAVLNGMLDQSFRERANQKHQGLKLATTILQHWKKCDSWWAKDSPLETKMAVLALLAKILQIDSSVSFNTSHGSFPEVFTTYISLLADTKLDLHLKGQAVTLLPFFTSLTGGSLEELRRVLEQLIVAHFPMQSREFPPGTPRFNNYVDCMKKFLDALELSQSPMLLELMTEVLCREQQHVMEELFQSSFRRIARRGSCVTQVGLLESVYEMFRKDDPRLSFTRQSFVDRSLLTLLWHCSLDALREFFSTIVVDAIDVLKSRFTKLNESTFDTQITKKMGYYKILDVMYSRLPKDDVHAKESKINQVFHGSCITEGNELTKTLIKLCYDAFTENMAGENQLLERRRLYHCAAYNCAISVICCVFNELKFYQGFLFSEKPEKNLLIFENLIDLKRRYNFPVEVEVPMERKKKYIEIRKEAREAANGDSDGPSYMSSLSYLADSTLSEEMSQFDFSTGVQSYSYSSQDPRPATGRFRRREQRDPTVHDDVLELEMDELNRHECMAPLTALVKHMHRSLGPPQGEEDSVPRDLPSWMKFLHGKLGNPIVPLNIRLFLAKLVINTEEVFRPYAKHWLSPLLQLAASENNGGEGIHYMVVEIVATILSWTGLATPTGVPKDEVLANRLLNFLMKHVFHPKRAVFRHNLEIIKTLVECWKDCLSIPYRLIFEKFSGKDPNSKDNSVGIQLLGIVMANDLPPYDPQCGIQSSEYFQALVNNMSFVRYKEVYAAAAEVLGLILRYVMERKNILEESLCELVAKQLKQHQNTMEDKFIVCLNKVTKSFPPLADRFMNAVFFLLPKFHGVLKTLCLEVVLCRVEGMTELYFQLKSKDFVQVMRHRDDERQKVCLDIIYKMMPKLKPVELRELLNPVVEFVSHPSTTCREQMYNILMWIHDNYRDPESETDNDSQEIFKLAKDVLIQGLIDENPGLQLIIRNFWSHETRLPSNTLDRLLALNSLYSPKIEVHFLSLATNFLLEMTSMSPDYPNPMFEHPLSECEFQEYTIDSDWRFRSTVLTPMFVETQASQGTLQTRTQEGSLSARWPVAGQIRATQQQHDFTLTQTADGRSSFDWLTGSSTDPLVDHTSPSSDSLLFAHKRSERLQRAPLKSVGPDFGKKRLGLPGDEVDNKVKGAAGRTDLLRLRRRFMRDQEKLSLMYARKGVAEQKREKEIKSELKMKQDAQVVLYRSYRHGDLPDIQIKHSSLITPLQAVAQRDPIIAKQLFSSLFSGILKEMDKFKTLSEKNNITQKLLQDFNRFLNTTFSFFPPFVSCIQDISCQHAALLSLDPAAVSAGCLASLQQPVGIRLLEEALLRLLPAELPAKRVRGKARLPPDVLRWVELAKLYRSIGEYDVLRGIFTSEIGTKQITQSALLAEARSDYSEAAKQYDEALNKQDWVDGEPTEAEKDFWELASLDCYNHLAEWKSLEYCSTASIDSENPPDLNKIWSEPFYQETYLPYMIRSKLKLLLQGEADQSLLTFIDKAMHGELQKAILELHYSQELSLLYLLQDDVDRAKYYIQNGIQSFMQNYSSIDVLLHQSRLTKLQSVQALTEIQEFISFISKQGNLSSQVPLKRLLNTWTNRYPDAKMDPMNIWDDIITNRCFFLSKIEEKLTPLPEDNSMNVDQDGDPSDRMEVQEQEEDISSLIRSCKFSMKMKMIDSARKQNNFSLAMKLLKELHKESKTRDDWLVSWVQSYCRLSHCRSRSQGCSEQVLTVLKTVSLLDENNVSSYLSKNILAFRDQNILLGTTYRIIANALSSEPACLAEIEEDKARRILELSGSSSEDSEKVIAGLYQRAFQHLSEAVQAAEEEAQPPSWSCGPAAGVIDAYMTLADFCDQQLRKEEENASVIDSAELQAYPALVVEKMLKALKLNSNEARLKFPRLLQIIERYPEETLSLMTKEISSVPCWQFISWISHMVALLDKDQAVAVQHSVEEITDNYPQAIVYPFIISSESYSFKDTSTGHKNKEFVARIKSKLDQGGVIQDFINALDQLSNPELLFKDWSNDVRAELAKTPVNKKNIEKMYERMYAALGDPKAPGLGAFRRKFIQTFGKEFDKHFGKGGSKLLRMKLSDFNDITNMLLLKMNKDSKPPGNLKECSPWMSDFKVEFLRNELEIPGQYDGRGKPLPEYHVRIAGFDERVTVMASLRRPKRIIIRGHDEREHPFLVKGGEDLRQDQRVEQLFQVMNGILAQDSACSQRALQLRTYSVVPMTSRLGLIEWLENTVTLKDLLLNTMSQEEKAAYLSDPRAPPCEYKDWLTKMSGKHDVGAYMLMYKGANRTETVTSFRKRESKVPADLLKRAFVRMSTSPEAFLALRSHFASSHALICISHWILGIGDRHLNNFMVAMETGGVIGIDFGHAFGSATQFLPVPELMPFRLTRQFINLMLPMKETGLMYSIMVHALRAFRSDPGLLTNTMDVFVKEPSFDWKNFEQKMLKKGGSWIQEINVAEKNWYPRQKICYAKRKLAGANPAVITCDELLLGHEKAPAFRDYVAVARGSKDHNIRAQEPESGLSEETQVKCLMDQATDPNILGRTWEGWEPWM
UniProt P12956: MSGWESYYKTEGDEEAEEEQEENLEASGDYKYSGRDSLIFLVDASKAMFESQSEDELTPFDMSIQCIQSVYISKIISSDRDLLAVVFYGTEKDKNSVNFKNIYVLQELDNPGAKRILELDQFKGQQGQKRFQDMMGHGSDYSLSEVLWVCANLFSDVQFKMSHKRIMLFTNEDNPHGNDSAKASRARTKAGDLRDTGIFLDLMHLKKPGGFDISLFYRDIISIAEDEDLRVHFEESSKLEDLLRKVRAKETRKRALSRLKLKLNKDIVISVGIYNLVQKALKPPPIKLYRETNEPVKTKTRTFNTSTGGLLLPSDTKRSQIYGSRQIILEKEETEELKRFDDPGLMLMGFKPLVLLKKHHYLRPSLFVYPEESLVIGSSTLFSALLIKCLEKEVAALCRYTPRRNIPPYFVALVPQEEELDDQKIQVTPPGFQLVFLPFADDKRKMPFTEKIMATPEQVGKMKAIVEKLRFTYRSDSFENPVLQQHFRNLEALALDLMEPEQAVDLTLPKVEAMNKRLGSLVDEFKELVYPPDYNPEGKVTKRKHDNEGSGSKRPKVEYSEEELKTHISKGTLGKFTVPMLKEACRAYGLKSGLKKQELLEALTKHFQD
UniProt P13010: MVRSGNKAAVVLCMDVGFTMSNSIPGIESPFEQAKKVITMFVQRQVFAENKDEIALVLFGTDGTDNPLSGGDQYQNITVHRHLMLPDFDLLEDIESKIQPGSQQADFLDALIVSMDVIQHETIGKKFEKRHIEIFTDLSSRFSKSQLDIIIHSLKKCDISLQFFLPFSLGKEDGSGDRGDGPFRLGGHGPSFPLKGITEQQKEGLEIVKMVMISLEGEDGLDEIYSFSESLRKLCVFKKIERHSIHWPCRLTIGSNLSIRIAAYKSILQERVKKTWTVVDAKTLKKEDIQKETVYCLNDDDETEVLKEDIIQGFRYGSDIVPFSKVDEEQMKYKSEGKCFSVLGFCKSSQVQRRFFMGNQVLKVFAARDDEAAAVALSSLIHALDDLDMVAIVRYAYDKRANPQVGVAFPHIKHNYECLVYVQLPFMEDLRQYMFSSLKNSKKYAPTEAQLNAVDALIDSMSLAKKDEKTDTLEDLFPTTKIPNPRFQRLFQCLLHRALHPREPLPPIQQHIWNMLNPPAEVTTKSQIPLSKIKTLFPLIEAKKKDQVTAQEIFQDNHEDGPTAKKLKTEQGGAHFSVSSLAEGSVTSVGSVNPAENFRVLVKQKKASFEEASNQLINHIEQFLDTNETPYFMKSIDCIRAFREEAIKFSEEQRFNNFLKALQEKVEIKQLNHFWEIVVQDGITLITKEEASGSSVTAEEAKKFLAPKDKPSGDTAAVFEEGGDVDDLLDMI

For test [1], the target named is T1, GST-L4-33K fusion protein (adenovirus L4-33K) (human adenovirus (serotype not stated for this construct)) (UniProt P24940).
T1 sequence: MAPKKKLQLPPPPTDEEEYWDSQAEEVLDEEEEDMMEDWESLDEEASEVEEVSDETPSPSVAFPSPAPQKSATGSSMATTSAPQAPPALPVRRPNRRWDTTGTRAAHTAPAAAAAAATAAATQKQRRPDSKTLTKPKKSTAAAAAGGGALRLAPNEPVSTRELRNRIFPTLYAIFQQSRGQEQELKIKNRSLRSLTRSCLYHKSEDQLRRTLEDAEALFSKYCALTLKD
The test is described as follows: pull-down; 5 µg purified GST-L4-33K (or GST) mixed with 1 mg HeLa nuclear extract or adenovirus late infected nuclear extract in 500 µL 60% Buffer D, Glutathione Sepharose 4B, 2 h at 4°C, five washes; SDS-PAGE, colloidal CBB staining, visible bands identified by mass spectrometry; only the target purified.

For test [2], the target named is T2, FLAG-epitope tagged L4-33K protein expressed from the recombinant AdEasy-L4-33K virus (human adenovirus 5 (Ad5, by the plasmid name)) (UniProt P24940).
T2 sequence: T1 sequence
Briefly: co-IP; nuclear extract of HEK293 cells infected with AdEasy-L4-33K or AdEasy-GFP (20 hpi, no doxycycline), 60% Buffer D, anti-FLAG M2 affinity gel 2 h at 4°C, eluted with 3xFLAG peptide; SDS-PAGE, colloidal CBB staining, bands identified by mass spectrometry.

No constants are given. Whether binding was seen depends on the method and setting. In cells and extracts the contact can be indirect. Some entries that bind do so weakly or less than the wild type. Where a sequence is shown, tags or fusion partners need not be part of it.

On to “ATP-citrate lyase (from UniProt P53396 1-1101) (enzyme)”, for which, in test [1], the binding result was “binds”. As for “DNA-dependent protein kinase catalytic subunit (from UniProt P78527 1-4128) (enzyme)”, the binding entry in test [2] and in test [1] was “binds” in each case. In the case of Ku70 (from UniProt P12956 1-609), the binding entry in test [2] and in test [1] was “no binding” in each case. As for Ku86 (from UniProt P13010 1-732), the binding entry in test [2] and in test [1] was “no binding” each time.

B1: Aldolase A (enzyme, UniProt P04075 1-364)
chain: MPYQYPALTPEQKKELSDIAHRIVAPGKGILAADESTGSIAKRLQSIGTENTEENRRFYRQLLLTADDRVNPCIGGVILFHETLYQKADDGRPFPQVIKSKGGVVGIKVDKGVVPLAGTNGETTTQGLDGLSERCAQYKKDGADFAKWRCVLKIGEHTPSALAIMENANVLARYASICQQNGIVPIVEPEILPDGDHDLKRCQYVTEKVLAAVYKALSDHHIYLEGTLLKPNMVTPGHACTQKFSHEEIAMATVTALRRTVPPAVTGITFLSGGQSEEEASINLNAINKCPLLKPWALTFSYGRALQASALKAWGGKKENLKAAQEEYVKRALANSLACQGKYTPSGQAGAAASESLFVSNHAY
For the molecule B1, the binding entry in test [1] is “binds”.
